Reference: the supplement of paper PMC10849652
The other results are listed elsewhere or left out.

The chains behind the UniProt entries cited, without tags or fusion partners. Where a name states a change or a piece, a line headed by the entry shows the natural chain unless it says otherwise.
UniProt Q9P2J5: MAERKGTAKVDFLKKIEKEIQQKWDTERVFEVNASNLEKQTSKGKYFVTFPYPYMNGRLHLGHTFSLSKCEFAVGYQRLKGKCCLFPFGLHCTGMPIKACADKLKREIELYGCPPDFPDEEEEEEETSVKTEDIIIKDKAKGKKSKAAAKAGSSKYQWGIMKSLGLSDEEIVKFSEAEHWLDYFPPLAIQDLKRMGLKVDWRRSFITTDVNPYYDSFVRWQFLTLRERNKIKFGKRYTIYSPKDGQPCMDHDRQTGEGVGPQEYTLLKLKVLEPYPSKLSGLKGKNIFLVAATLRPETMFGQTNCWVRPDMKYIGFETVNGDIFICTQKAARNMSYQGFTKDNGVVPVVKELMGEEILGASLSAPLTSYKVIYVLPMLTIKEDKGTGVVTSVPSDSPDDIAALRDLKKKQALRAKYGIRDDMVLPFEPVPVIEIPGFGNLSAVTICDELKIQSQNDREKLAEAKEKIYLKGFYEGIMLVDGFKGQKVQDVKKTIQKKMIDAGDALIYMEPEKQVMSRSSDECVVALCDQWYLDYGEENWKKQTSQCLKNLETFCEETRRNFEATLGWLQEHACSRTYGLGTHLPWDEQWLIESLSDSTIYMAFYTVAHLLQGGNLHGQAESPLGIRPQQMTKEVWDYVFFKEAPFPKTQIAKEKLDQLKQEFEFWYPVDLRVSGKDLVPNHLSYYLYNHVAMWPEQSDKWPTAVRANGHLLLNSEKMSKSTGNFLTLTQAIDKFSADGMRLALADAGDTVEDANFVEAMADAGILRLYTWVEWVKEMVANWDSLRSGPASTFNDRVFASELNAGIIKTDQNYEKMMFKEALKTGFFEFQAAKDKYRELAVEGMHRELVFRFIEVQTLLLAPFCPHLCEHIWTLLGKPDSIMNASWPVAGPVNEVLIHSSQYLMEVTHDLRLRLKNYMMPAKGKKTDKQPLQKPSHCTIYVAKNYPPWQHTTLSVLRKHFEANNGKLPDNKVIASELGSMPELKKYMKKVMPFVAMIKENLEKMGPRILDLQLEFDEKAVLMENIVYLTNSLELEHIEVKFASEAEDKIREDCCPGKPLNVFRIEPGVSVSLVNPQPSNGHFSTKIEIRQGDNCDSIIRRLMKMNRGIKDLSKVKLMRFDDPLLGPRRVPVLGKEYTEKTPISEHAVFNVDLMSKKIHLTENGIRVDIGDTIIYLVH
UniProt O43813, whole entry, looked up: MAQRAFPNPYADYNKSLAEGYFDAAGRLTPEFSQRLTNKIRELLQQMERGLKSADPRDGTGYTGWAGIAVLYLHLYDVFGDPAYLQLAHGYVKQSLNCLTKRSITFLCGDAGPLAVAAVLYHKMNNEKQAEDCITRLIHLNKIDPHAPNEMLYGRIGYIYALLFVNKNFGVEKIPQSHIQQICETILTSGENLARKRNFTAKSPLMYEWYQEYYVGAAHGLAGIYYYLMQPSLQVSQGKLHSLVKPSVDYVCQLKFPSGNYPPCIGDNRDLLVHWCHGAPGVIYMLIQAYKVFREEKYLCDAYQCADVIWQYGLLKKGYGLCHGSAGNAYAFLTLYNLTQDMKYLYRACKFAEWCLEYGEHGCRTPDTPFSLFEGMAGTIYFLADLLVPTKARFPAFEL
UniProt Q96EM0: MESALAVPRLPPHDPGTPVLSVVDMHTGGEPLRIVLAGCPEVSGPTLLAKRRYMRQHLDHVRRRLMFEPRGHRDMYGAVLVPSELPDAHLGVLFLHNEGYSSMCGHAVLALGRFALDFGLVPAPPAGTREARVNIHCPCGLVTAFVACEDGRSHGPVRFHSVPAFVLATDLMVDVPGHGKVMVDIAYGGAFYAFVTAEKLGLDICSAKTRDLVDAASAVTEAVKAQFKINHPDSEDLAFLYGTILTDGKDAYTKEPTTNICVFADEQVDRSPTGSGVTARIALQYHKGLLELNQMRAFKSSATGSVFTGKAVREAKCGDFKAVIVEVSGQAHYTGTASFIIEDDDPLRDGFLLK
UniProt Q8N9N7: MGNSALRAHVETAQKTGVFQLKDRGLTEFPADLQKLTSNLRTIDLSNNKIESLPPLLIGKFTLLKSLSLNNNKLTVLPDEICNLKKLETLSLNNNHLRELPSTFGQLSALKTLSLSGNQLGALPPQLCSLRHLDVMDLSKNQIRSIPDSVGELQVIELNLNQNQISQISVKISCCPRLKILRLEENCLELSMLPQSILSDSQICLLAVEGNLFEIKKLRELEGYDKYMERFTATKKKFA
UniProt P48059, whole entry, looked up: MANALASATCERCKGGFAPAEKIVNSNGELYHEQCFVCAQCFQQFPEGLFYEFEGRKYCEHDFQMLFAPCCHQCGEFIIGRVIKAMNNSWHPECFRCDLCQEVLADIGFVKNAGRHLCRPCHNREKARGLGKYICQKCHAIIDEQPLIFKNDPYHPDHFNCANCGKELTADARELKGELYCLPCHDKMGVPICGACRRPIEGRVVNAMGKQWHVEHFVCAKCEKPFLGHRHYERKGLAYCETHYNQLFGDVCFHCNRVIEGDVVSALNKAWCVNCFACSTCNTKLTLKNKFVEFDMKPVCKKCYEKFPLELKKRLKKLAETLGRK
UniProt Q15031: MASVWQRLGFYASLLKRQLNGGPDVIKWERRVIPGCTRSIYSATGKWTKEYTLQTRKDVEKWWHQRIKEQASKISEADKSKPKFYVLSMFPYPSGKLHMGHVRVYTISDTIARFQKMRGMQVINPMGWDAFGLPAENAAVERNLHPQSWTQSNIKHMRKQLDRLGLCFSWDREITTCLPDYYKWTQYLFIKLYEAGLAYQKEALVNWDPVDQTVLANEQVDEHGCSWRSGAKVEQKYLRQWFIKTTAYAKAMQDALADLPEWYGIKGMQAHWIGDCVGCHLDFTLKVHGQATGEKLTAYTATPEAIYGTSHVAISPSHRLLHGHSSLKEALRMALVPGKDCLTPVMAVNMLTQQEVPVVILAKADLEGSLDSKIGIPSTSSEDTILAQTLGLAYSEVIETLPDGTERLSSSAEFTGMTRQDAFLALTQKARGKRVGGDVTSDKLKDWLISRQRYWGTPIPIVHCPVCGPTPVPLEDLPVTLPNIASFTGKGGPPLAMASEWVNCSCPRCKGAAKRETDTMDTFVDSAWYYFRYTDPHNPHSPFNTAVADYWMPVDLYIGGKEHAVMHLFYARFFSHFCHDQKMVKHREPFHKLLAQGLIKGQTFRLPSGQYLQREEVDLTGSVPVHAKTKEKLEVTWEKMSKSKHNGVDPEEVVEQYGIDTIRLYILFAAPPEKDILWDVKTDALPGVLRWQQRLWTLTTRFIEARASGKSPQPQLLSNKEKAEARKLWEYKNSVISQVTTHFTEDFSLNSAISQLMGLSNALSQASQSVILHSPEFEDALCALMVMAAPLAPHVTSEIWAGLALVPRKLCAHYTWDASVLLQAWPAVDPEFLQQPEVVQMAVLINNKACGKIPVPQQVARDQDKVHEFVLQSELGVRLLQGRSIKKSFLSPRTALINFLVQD
UniProt Q9UIC8: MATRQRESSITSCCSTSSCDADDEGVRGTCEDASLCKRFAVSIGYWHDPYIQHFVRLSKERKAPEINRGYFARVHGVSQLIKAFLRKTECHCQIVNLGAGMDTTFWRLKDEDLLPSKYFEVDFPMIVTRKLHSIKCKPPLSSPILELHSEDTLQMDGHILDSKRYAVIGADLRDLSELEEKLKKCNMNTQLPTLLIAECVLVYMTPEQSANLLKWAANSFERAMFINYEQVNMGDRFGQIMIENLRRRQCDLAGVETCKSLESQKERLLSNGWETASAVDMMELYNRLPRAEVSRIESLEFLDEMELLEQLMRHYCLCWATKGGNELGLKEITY
UniProt P18858, whole entry, looked up: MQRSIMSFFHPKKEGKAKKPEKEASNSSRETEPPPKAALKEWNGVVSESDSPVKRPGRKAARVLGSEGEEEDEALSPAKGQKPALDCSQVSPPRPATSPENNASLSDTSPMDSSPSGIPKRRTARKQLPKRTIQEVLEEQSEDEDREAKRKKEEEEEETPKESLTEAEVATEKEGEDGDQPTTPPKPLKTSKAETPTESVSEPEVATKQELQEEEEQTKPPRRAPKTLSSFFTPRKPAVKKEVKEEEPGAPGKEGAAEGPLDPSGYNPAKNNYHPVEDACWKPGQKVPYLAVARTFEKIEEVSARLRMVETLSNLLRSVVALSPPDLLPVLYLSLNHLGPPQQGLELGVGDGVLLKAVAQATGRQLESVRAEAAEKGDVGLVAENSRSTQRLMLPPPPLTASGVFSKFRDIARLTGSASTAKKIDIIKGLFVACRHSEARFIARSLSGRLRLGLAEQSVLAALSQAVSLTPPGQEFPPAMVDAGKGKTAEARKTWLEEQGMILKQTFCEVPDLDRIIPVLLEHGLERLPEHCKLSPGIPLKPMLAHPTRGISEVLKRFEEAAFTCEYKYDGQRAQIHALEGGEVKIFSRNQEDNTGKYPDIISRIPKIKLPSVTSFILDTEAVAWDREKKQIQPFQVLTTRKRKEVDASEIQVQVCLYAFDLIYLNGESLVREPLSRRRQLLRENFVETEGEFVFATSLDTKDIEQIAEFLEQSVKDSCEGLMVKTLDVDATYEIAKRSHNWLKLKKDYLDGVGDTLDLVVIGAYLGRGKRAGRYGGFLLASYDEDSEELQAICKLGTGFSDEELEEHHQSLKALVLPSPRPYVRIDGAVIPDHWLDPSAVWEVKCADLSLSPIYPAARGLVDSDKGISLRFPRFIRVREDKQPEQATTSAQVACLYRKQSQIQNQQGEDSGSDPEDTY
UniProt Q8NF37: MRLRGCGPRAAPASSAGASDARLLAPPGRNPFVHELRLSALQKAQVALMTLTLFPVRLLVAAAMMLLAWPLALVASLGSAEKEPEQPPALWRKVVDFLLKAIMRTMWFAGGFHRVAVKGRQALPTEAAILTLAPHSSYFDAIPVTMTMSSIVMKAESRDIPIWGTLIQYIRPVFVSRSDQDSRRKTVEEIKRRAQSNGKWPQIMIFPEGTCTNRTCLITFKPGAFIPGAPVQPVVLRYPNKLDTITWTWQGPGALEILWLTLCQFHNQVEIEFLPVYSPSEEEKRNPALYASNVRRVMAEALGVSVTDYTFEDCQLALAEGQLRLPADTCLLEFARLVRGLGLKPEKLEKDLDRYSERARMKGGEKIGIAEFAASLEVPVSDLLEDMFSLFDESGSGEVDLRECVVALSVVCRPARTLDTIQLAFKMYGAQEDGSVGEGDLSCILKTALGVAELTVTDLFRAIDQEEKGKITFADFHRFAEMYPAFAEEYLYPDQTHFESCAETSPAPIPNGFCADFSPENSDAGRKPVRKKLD
UniProt Q6UWP7: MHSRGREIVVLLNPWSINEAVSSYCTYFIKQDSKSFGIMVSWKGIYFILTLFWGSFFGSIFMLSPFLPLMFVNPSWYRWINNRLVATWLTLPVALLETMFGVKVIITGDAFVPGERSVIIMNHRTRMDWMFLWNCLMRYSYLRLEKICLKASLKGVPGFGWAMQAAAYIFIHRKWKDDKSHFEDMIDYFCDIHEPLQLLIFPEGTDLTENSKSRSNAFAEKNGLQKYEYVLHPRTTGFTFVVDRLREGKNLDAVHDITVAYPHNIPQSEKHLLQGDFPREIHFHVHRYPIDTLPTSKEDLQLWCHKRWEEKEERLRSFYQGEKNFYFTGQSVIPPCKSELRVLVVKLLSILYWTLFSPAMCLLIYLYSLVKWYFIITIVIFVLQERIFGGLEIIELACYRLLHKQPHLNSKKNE
UniProt Q12907: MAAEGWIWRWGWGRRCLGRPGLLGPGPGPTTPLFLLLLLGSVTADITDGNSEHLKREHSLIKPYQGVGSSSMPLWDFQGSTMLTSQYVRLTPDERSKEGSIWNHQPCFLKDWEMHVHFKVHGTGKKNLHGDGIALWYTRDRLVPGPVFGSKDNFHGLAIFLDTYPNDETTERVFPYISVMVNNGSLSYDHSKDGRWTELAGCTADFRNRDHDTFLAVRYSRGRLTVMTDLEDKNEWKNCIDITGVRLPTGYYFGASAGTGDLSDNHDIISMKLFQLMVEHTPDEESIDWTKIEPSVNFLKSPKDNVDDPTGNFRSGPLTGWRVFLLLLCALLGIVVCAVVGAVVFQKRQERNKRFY
UniProt P13796: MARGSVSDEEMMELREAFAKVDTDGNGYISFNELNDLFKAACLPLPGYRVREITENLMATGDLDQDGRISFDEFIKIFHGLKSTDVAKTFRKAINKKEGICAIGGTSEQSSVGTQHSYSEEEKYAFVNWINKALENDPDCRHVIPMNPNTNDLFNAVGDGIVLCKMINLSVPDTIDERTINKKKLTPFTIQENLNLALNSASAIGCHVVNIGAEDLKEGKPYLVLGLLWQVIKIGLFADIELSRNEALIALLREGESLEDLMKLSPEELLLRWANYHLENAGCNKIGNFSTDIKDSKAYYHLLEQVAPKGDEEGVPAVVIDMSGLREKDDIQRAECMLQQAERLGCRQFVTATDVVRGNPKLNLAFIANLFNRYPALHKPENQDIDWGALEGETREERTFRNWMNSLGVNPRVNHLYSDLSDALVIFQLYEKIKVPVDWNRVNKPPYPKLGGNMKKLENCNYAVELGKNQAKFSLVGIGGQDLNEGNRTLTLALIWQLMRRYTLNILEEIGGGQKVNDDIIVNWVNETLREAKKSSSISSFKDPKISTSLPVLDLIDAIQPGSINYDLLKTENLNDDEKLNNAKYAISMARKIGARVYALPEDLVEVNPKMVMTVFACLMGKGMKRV

Compound: COC(=O)N[C@@H](C)CNc1nccc(-c2cn(C(C)C)nc2-c2cc(Cl)cc(NS(C)(=O)=O)c2F)n1 [encorafenib]
Assay: log2 fold change, soluble protein after heating vs DMSO (PISA); higher = thermal stabilisation; K562 cells, 10 uM, 30 min; active = over 0.2 and 3.5 SD of the protein, either way, in both replicates (recomputed)
Procedure, shortened: (§1)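 K562 cells at 2×10^6 cells/mL were exposed to 10 μM compound for 30 min, then aliquots were heated for 3 min across 48°C-58°C, pooled, and extracted in PBS containing 0.5% NP-40 at 4°C. The supernatant after 21,000xg for 90 min was taken as soluble protein and measured by TMTpro 16plex LC-MS/MS with channel sums equalised. Thermal stability is reported relative to control samples, with values from duplicates. Fold changes are given on a log2 scale.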

log2 fold change, inactive:
LARS (UniProt Q9P2J5) 0.17
KYAT3 (UniProt Q6YP21) 0.012
LAMTOR1 (UniProt Q6IAA8) -0.012
LHPP (UniProt Q9H008) -0.023
LAP3 (UniProt P28838) 0.004
LANCL1 (UniProt O43813) -0.019
LASP1 (UniProt Q14847) -0.018
LRRC47 (UniProt Q8N1G4) 0.014
L3HYPDH (UniProt Q96EM0) 0.047
LRRC57 (UniProt Q8N9N7) -0.016
LIMS1 isoform 3 (UniProt P48059) 0.006
LARS2 (UniProt Q15031) 0.035
LLPH (UniProt Q9BRT6) 0.256
LACTB2 (UniProt Q53H82) 0.004
LCMT1 (UniProt Q9UIC8) 0.012
LDB1 (UniProt Q86U70) -0.016
LENG1 (UniProt Q96BZ8) -0.065
LIG1 (UniProt P18858) 0.037
LETM1 (UniProt O95202) 0.011
LDHB (UniProt P07195) -0.023
LMAN2L isoform 2 (UniProt Q9H0V9) -0.064
LPCAT1 (UniProt Q8NF37) 0.044
LRRC20 (UniProt Q8TCA0) 0.061
LCLAT1 (UniProt Q6UWP7) 0.003
LAMTOR2 (UniProt Q9Y2Q5) -0.039
LONP1 (UniProt P36776) -0.01
LIN28B (UniProt Q6ZN17) 0.064
LMAN2 (UniProt Q12907) 0.001
LANCL2 (UniProt Q9NS86) -0.004
LCP1 (UniProt P13796) -0.01
LIMK2 isoform 3 (UniProt P53671) -0.08
LRRC40 (UniProt Q9H9A6) 0.043

Compound: COC(=O)[C@H](CCSC)NC(=O)C1=C(C=C(C=C1)NC[C@H](CS)N)C2=CC=CC=C2
Assay: as above
Procedure, shortened: as §1

log2 fold change, inactive:
LARS (UniProt Q9P2J5) -0.018
KYAT3 (UniProt Q6YP21) 0.036
LAMTOR1 (UniProt Q6IAA8) -0.048
LHPP (UniProt Q9H008) 0.045
LAP3 (UniProt P28838) -0.003
LANCL1 (UniProt O43813) -0.003
LASP1 (UniProt Q14847) 0.023
LRRC47 (UniProt Q8N1G4) -0.037
L3HYPDH (UniProt Q96EM0) 0.002
LRRC57 (UniProt Q8N9N7) 0
LIMS1 isoform 3 (UniProt P48059) 0.019
LARS2 (UniProt Q15031) -0.062
LLPH (UniProt Q9BRT6) -0.001
LACTB2 (UniProt Q53H82) 0.027
LCMT1 (UniProt Q9UIC8) -0.056
LDB1 (UniProt Q86U70) 0.003
LENG1 (UniProt Q96BZ8) 0.035
LIG1 (UniProt P18858) -0.07
LETM1 (UniProt O95202) 0.018
LDHB (UniProt P07195) 0.026
LMAN2L isoform 2 (UniProt Q9H0V9) 0.029
LPCAT1 (UniProt Q8NF37) 0.031
LRRC20 (UniProt Q8TCA0) -0.023
LCLAT1 (UniProt Q6UWP7) 0.001
LAMTOR2 (UniProt Q9Y2Q5) 0.139
LONP1 (UniProt P36776) 0.012
LIN28B (UniProt Q6ZN17) 0.012
LMAN2 (UniProt Q12907) -0.011
LANCL2 (UniProt Q9NS86) 0
LCP1 (UniProt P13796) 0.024
LIMK2 isoform 3 (UniProt P53671) 0.113
LRRC40 (UniProt Q9H9A6) -0.065
